In patent US20130230532A1 (HONG KONG UNIVERSITY OF SCIENCE AND TECHNOLOGY, published 2013):
No constants are given. Whether binding was seen depends on the method and setting. Binding seen in cells or lysates may run through a third protein. Some entries that bind do so weakly or less than the wild type. Sequences can lack the tags named with a protein.

Chains of the proteins cited; added tags and fusions are not shown.
UniProt Q99996: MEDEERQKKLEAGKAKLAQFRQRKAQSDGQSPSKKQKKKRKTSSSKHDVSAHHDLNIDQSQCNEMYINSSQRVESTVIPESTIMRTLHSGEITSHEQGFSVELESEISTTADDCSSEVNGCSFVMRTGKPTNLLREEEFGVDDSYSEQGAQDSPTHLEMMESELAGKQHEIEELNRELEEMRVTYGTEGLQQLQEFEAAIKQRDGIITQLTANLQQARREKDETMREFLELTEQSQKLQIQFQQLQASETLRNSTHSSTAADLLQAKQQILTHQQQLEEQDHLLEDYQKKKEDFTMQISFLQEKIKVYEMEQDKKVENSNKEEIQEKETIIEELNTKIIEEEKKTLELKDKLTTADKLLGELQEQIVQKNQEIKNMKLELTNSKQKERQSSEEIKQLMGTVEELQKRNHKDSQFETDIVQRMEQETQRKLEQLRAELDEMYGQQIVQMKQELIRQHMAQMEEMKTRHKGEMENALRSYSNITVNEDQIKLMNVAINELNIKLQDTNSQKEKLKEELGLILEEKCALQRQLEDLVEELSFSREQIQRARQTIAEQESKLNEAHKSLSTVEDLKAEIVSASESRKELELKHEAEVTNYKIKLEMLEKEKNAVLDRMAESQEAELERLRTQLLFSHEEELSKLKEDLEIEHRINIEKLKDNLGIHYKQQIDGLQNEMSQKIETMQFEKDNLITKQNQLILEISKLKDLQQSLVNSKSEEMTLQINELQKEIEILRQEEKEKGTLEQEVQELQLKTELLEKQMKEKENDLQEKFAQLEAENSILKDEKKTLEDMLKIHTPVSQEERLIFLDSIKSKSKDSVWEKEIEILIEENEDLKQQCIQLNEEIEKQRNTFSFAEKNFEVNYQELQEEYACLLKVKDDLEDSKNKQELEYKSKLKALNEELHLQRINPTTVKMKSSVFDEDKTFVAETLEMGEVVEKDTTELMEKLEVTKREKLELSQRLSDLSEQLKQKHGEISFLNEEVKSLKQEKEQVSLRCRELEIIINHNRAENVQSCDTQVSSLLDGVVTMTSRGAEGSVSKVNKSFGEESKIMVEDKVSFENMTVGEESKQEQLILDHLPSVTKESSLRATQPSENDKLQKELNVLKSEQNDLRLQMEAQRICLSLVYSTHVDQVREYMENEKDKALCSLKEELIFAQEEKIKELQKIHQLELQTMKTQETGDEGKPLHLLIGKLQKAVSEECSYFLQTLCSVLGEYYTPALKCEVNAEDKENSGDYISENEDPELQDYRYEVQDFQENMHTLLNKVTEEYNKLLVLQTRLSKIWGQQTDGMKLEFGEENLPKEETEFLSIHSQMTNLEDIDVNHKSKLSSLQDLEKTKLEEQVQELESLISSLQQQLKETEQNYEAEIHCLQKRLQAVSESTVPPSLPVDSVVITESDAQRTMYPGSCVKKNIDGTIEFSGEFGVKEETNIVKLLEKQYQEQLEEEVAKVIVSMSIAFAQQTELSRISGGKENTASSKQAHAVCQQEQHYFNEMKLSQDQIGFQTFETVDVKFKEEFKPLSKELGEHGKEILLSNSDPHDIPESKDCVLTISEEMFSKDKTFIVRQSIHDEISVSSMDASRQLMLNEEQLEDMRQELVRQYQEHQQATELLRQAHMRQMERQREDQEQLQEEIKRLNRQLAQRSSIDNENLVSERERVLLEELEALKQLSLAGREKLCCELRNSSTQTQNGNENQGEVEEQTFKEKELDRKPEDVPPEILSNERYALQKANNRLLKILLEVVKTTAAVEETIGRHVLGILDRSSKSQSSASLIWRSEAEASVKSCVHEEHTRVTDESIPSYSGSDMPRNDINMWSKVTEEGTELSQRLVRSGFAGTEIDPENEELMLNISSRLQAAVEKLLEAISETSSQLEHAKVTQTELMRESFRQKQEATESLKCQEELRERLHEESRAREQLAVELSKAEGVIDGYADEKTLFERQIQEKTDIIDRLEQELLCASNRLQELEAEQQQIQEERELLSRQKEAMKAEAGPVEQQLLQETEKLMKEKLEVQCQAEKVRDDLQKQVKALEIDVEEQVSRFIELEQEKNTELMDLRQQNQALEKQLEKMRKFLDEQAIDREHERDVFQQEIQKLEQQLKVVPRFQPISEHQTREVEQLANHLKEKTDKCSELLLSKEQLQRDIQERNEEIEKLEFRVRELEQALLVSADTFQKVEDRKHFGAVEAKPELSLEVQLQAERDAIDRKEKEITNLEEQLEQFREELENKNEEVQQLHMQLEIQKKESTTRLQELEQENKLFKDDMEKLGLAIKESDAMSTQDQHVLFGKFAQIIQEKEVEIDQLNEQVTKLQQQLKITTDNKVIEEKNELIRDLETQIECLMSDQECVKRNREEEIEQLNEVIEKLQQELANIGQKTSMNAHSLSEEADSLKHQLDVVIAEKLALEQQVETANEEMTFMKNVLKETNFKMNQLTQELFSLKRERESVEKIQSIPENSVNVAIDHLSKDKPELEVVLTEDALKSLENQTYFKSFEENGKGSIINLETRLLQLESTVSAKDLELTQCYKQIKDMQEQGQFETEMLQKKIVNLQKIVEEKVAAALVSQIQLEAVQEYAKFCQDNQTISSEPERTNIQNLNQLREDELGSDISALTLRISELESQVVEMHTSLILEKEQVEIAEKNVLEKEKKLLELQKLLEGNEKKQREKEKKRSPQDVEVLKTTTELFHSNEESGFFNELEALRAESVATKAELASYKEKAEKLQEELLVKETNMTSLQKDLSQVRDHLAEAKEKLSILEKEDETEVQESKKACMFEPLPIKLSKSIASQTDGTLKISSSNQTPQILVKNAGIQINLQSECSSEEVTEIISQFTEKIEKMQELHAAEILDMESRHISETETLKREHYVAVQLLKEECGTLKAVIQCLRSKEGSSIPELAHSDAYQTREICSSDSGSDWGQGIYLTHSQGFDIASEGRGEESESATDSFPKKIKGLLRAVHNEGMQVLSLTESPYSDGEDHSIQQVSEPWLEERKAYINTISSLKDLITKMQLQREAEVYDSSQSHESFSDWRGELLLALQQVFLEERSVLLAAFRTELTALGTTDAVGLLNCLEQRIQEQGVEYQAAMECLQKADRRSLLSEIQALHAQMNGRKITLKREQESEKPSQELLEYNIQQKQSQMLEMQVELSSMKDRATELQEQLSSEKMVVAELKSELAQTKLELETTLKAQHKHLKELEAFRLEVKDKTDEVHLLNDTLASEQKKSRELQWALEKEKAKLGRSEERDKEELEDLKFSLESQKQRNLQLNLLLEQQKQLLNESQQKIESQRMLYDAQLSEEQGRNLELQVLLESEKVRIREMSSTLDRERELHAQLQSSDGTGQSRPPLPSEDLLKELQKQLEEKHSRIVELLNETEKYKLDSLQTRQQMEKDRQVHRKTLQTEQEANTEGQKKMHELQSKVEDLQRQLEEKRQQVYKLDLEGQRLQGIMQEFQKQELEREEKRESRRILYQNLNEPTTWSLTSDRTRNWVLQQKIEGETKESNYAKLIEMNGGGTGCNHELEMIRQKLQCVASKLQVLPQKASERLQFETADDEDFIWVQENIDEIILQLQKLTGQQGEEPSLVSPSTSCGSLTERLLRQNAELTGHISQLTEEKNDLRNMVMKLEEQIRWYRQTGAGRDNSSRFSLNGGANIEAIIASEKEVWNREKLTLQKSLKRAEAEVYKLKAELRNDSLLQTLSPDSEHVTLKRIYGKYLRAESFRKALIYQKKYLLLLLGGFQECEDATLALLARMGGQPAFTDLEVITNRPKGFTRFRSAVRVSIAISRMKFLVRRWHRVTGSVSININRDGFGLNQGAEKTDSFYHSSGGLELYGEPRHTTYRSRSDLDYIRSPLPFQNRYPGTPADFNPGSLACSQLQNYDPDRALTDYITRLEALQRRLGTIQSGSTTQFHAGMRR

Columns and labels:
[1] = biological target: T1, EB1 (UniProt Q15691 2-268); experiment: anti-FLAG co-immunoprecipitation, immunoblot
T1 construct: Endogenous protein detected by immunoblot or mass spectrometry; also called endogenous EB1
T1 sequence (looked up): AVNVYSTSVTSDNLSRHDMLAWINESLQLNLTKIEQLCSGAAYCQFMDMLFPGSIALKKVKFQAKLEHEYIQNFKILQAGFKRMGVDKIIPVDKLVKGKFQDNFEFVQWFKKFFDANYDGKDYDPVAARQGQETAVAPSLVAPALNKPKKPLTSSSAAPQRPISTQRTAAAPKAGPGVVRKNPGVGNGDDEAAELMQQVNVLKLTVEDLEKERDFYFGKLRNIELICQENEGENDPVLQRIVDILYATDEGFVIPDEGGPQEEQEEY
Procedure: After anti-FLAG immunoprecipitation, the immunoprecipitates and inputs were probed on immunoblots. […] Scale bars, 5 μm.
(§1) Anti-FLAG immunoprecipitation was performed using anti-FLAG-coupled beads (M2, Sigma) in cell extracts prepared with a lysis buffer (20 mM Tris-HCl, pH7.4, 150 mM NaCl, 1 mM EDTA, 1% Triton X-100, 1 mM dithiothreitol, and the Protease Inhibitor Cocktail). Immunoprecipitated proteins were detected by immunoblotting.

[2] = biological target: T2, AKAP450 (UniProt Q99996 1-3907, limits assumed); experiment: co-immunoprecipitation and localization of MMG8 fragments
T2 construct: Endogenous protein detected by immunoblot; also called AKAP350; CG-NAP

[3] = biological target: T2, AKAP450; experiment: anti-FLAG co-immunoprecipitation from HEK293T, immunoblot
Procedure: The immunoprecipitated proteins and inputs were analyzed by immunoblotting and quantified. […] Data shown are means±S.D. from three independent experiments. […] The arrow indicates a transfected cell. Boxed areas are enlarged. Scale bars, 5 μm.
as §1

Measured: binding

B1: FLAG-tagged MMG8 fragment 1-389 (protein, not shown: small tags and cut ends)
chain: MKEICRICARELCGNQRRWIFHTASKLNLQVLLSHVLGKDVPRDGKAEFACSKCAFMLDRIYRFDTVIARIEALSIERLQKLLLEKDRLKFCIASMYRKNNDDSGAEIKAGNGTVDMSVLPDARYSALLQEDFAYSGFECWVENEDQIQEPHSCHGSEGPGNRPRRCRGCAALRVADSDYEAICKVPRKVARSISCGPSSRWSTSICTEEPALSEVGPPDLASTKVPPDGESMEEETPGSSVESLDASVQASPPQQKDEETERSAKELGKCDCCSDDQAPQHGCNHKLELALSMIKGLDYKPIQSPRGSRLPIPVKSSLPGAKPGPSMTDGVSSGFLNRSLKPLYKTPVSYPLELSDLQELWDDLCEDYLPLRVQPMTEELLKQQKLNS
binds: all assays above
